Experimental findings from article PMC12078756 are described below.

Sequences of proteins named here, by UniProt entry; tags and fusion partners are left off. A change or cut given only in a name is not applied to a line headed by its entry. A line that says so, or that is headed by a name, gives the form on record, which may keep a tag or linker.
GFP-tagged IFT20 (intraflagellar transport protein 20) (Q8IY31, form named): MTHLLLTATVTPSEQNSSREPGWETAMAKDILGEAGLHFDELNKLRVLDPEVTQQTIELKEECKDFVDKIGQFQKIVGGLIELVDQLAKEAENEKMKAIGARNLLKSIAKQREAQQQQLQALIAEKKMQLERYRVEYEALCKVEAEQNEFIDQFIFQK

The test has as its target GFP-tagged IFT20 (intraflagellar transport protein 20) (human) (UniProt Q8IY31). As to the kind of experiment: co-IP; exogenous GFP-IFT20 and HA-IFT88; lysate (10 mM Tris, 150 mM NaCl, 6 mM EDTA, 1 mM EGTA, 2% Triton X-100, 20% glycerol, 2 mM sodium pyrophosphate, pH 7.5) incubated with anti-GFP beads at 4°C overnight; immunoblotting. For orientation: Immunoblotting shows a protein as a band on a membrane.

Results are given in words; binding and its absence hold for the method and conditions named. In cells and extracts the contact can be indirect. Some binding calls cover weakened binding; strength is not graded here. Sequences can lack the tags named with a protein.

B1: HA-IFT88 (protein, UniProt Q13099-1 1-833)
chain: MKFTNTKVQMMQNVHLAPETDEDDLYSGYNDYNPIYDIEELENDAAFQQAVRTSHGRRPPITAKISSTAVTRPIATGYGSKTSLASSIGRPMTGAIQDGVTRPMTAVRAAGFTKAALRGSAFDPLSQSRGPASPLEAKKKDSPEEKIKQLEKEVNELVEESCIANSCGDLKLALEKAKDAGRKERVLVRQREQVTTPENINLDLTYSVLFNLASQYSVNEMYAEALNTYQVIVKNKMFSNAGILKMNMGNIYLKQRNYSKAIKFYRMALDQVPSVNKQMRIKIMQNIGVTFIQAGQYSDAINSYEHIMSMAPNLKAGYNLTICYFAIGDREKMKKAFQKLITVPLEIDEDKYISPSDDPHTNLVTEAIKNDHLRQMERERKAMAEKYIMTSAKLIAPVIETSFAAGYDWCVEVVKASQYVELANDLEINKAVTYLRQKDYNQAVEILKVLEKKDSRVKSAAATNLSALYYMGKDFAQASSYADIAVNSDRYNPAALTNKGNTVFANGDYEKAAEFYKEALRNDSSCTEALYNIGLTYEKLNRLDEALDCFLKLHAILRNSAEVLYQIANIYELMENPSQAIEWLMQVVSVIPTDPQVLSKLGELYDREGDKSQAFQYYYESYRYFPCNIEVIEWLGAYYIDTQFWEKAIQYFERASLIQPTQVKWQLMVASCFRRSGNYQKALDTYKDTHRKFPENVECLRFLVRLCTDLGLKDAQEYARKLKRLEKMKEIREQRIKSGRDGSGGSRGKREGSASGDSGQNYSASSKGERLSARLRALPGTNEPYESSSNKEIDASYVDPLGPQIERPKTAAKKRIDEDDFADEELGDDLLPE
For B1, the binding result was “binds”.
